In the supplement of paper PMC10849652:
This is one part of the list.

By UniProt entry, the sequences of proteins in these tests, tags left out. Where a name states a change or a piece, a line headed by the entry shows the natural chain unless it says otherwise.
UniProt P51553: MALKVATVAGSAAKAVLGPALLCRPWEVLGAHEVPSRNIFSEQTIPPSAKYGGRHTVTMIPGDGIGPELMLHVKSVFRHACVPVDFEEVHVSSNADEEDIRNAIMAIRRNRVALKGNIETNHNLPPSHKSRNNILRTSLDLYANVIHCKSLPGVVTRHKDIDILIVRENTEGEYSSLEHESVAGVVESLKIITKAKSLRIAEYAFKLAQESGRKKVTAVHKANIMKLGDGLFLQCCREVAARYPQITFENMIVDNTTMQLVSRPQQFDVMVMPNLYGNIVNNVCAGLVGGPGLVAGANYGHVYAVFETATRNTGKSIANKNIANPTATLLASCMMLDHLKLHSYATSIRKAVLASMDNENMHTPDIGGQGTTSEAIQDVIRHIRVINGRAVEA
UniProt Q5TA45, whole entry, looked up: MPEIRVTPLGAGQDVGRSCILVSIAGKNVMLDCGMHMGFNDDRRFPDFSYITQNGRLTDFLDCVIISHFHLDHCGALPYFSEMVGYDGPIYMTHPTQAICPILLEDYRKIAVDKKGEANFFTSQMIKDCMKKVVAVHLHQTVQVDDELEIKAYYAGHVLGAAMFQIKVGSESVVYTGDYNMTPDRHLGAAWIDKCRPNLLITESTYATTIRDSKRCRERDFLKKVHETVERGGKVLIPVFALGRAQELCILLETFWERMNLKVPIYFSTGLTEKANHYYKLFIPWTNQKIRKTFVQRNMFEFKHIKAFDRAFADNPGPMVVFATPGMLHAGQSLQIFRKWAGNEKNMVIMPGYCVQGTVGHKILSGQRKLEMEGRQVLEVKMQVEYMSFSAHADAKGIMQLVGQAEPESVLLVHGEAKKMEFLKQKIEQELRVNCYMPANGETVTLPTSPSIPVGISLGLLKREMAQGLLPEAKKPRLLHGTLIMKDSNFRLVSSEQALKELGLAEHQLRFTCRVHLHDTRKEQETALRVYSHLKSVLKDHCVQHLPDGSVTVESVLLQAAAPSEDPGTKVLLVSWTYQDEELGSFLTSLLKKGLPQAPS
UniProt Q8IY31, whole entry, looked up: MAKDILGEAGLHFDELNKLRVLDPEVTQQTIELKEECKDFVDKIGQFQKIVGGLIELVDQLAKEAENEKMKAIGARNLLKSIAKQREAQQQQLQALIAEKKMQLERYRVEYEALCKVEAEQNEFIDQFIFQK
UniProt Q9BT40: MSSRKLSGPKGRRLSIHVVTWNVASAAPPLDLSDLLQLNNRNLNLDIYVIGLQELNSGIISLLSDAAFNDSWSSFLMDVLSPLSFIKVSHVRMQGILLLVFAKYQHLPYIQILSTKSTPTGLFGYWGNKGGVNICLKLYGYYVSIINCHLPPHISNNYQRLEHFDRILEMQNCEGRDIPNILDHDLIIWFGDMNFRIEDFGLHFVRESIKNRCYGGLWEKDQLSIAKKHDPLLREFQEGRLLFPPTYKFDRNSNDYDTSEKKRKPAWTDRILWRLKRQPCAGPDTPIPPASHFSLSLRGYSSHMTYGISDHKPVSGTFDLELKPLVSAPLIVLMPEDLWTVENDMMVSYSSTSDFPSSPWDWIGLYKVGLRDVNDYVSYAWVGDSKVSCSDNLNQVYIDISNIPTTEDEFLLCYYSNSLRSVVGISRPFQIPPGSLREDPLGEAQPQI
UniProt Q9P2X3: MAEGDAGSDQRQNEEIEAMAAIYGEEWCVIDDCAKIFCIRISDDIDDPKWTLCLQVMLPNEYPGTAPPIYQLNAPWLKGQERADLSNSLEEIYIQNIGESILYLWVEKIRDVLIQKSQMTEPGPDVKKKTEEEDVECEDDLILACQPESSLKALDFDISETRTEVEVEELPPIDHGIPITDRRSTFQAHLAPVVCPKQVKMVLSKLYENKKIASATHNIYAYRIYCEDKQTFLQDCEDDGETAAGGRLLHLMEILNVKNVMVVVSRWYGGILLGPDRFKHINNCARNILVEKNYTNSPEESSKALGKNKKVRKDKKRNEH
UniProt Q05084: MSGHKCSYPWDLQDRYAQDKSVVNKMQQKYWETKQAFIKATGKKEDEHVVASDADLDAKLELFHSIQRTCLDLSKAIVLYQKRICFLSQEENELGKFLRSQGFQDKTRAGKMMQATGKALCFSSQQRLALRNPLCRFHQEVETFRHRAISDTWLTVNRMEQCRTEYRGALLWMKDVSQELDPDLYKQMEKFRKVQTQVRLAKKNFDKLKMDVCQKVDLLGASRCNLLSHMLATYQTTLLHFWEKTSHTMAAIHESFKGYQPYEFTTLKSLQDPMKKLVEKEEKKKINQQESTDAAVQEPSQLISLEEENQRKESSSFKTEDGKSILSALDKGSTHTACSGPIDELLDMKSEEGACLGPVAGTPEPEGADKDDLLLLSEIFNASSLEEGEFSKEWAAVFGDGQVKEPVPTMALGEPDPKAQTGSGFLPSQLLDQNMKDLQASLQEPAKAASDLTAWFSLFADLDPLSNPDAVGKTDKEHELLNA
UniProt P04792, whole entry, looked up: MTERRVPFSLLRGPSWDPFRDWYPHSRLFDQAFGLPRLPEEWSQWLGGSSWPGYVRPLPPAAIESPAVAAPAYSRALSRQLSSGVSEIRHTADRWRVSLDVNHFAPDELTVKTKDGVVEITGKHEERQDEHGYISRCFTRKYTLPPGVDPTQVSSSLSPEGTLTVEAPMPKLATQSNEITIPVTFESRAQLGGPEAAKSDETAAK

What was measured:
Assay in all cases: log2 fold change, soluble protein after heating vs DMSO (PISA); higher = thermal stabilisation; K562 lysate, 10 uM; active = over 0.2 and 3.5 SD of the protein, either way, in both replicates (recomputed)
ibrutinib = compound: C=CC(=O)N1CCC[C@@H](n2nc(-c3ccc(Oc4ccccc4)cc3)c3c(N)ncnc32)C1 [ibrutinib]
Summary of the method: (§1)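 Values give the log-two fold change in thermal stability against solvent controls, from duplicates. Crude K562 extract at 1 mg/mL protein, made by dounce homogenisation in PBS pH 7.4 with 1 mM MgCl2, was treated with 10 μM compound for 30 min. After 3 min heating across 48°C-58°C, aliquots were pooled, adjusted to 0.5% NP-40 at 4°C and centrifuged at 21,000xg for 90 min. The supernatant was measured by TMTpro 16plex LC-MS/MS with channel sums equalised.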

[1] = compound: CC(=O)c1cnc2ccc(-c3cc(Cl)c(O)c(Cl)c3)nc2c1N[C@H]1CC[C@H](CN(C)C)CC1
Summary of the method: as §1

ralimetinib = compound: CC(C)(C)Cn1c(N)nc2ccc(-c3[nH]c(C(C)(C)C)nc3-c3ccc(F)cc3)nc21 [ralimetinib]
Summary of the method: as §1

[2] = compound: CC(C)(O)CC(=O)NCCn1ccc2ncnc(Nc3ccc(Oc4cccc(C(F)(F)F)c4)c(Cl)c3)c21
Summary of the method: as §1

[3] = compound: CC(C)C1=C2N=C(C=C(N2N=C1)NCC3=CC=CC=C3)NCCCCCCN
Summary of the method: as §1

[4] = compound: CC1=C(C(CC(=O)N1)C2=CC=C(C=C2)C(F)(F)F)C(=O)NC3=C(C=C4C(=C3)C=NN4)F
Summary of the method: as §1

[5] = compound: CC1=C(C2=C(C=C1)C(=O)C3=CC=CC=C3N2CCCN)C
Summary of the method: as §1

[6] = compound: CC1=C(C=C(C=C1)NC(=O)C2=CC(=CC=C2)C(C)(C)C#N)NC3=CC4=C(C=C3)N=CN(C4=O)C
Summary of the method: as §1

[7] = compound: CC1=C(C=C(C=C1)NC(=O)C2=CC(=CC=C2)N(C)C)NC(=O)C3=CC=C(C=C3)O
Summary of the method: as §1

[8] = compound: CC1=CC=C(C=C1)SC2=C3C=C(SC3=CN=C2)C(=O)N
Summary of the method: as §1

vemurafenib = compound: CCCS(=O)(=O)Nc1ccc(F)c(C(=O)c2c[nH]c3ncc(-c4ccc(Cl)cc4)cc23)c1F [vemurafenib]
Summary of the method: as §1

[9] = compound: CCCS(=O)(=O)Nc1ccc(F)c(C(=O)c2c[nH]c3ncc(Cl)cc23)c1F
Summary of the method: as §1

barasertib = compound: CCN(CCCOc1ccc2c(Nc3cc(CC(=O)Nc4cccc(F)c4)[nH]n3)ncnc2c1)CCOP(=O)(O)O [barasertib]
Summary of the method: as §1

[10] = compound: CC[C@@H]1C(=O)N(C)c2cnc(Nc3ccc(C(=O)NC4CCN(C)CC4)cc3OC)nc2N1C1CCCC1
Summary of the method: as §1

volasertib = compound: CC[C@@H]1C(=O)N(C)c2cnc(Nc3ccc(C(=O)N[C@H]4CC[C@H](N5CCN(CC6CC6)CC5)CC4)cc3OC)nc2N1C(C)C [volasertib]
Summary of the method: as §1

[11] = compound: CCn1c(C(=O)N(C2CC2)C2CC2)cc2c3c(ncn3C)c(Nc3cc(C)n(C)n3)nc21
Summary of the method: as §1

[12] = compound: CCn1cc(-c2ccnc3[nH]c(-c4cccc(CN(C)C)c4)cc23)c(-c2ccc(NC(=O)N(C)C)cc2)n1
Summary of the method: as §1

[13] = compound: CN1CCC(CNc2ccc3ncc(-c4cccc(OC(F)(F)F)c4)n3n2)CC1
Summary of the method: as §1

saracatinib = compound: CN1CCN(CCOc2cc(OC3CCOCC3)c3c(Nc4c(Cl)ccc5c4OCO5)ncnc3c2)CC1 [saracatinib]
Summary of the method: as §1

sotrastaurin = compound: CN1CCN(c2nc(C3=C(c4c[nH]c5ccccc45)C(=O)NC3=O)c3ccccc3n2)CC1 [sotrastaurin]
Summary of the method: as §1

Measured: log2 fold change

IDH3G (UniProt P51553)
inactive: ibrutinib -0.009 | [1] -0.029 | ralimetinib 0.022 | [2] -0.03 | [3] -0.014 | [4] -0.042 | [5] -0.005 | [6] 0.026 | [7] -0.029 | [8] 0.022 | vemurafenib -0.036 | [9] -0.014 | barasertib 0.014 | [10] 0.03 | volasertib -0.012 | [11] -0.043 | [12] -0.032 | [13] 0.015 | saracatinib 0.012 | sotrastaurin -0.026

INTS11 (UniProt Q5TA45)
inactive: ibrutinib 0.01 | [1] -0.006 | ralimetinib -0.03 | [2] 0.009 | [3] -0.017 | [4] -0.014 | [5] -0.006 | [6] -0.034 | [7] 0.006 | [8] 0.018 | vemurafenib -0.036 | [9] -0.035 | barasertib 0.005 | [10] 0.048 | volasertib -0.008 | [11] 0.012 | [12] -0.023 | [13] -0.02 | saracatinib 0.002 | sotrastaurin -0.022

IFT20 isoform 2 (UniProt Q8IY31)
inactive: ibrutinib -0.033 | [1] -0.055 | ralimetinib -0.001 | [2] -0.183 | [3] 0.015 | [4] -0.115 | [5] -0.08 | [6] 0.089 | [7] 0.052 | [8] -0.032 | vemurafenib -0.012 | [9] 0.03 | barasertib -0.189 | [10] 0.01 | volasertib 0.001 | [11] 0.037 | [12] 0.274 | [13] 0.132 | saracatinib 0.058 | sotrastaurin -0.081

INPP4A (UniProt Q96PE3)
active: barasertib 0.382
inactive: ibrutinib -0.166 | [1] 0.001 | ralimetinib 0.061 | [2] -0.013 | [3] -0.034 | [4] 0.02 | [5] -0.086 | [6] 0.022 | [7] -0.053 | [8] -0.025 | vemurafenib -0.03 | [9] 0.011 | [10] -0.017 | volasertib -0.034 | [11] 0.031 | [12] 0.021 | [13] 0.015 | saracatinib -0.025 | sotrastaurin -0.008

INPP5K (UniProt Q9BT40)
inactive: ibrutinib -0.297 | [1] -0.019 | ralimetinib 0.071 | [2] 0.034 | [3] -0.044 | [4] 0.079 | [5] -0.009 | [6] 0.002 | [7] 0.123 | [8] 0 | vemurafenib 0.022 | [9] -0.002 | barasertib 0.072 | [10] -0.082 | volasertib -0.009 | [11] -0.088 | [12] -0.059 | [13] 0.097 | saracatinib -0.04 | sotrastaurin 0.022

IMPACT (UniProt Q9P2X3)
inactive: ibrutinib -0.19 | [1] -0.075 | ralimetinib 0.061 | [2] 0.001 | [3] -0.065 | [4] 0.289 | [5] 0.034 | [6] 0.146 | [7] 0.14 | [8] -0.052 | vemurafenib 0.158 | [9] -0.117 | barasertib -0.014 | [10] -0.095 | volasertib 0.053 | [11] 0.133 | [12] 0.003 | [13] -0.122 | saracatinib 0.001 | sotrastaurin 0.058

ICA1 (UniProt Q05084)
inactive: ibrutinib -0.029 | [1] -0.037 | ralimetinib -0.004 | [2] -0.024 | [3] 0.052 | [4] -0.016 | [5] 0 | [6] 0.008 | [7] -0.004 | [8] -0.02 | vemurafenib 0.065 | [9] 0.008 | barasertib 0.061 | [10] -0.001 | volasertib -0.017 | [11] -0.031 | [12] 0.022 | [13] -0.052 | saracatinib 0.01 | sotrastaurin -0.019

HSPB1 (UniProt P04792)
inactive: ibrutinib -0.015 | [1] -0.008 | ralimetinib 0.022 | [2] -0.016 | [3] 0.012 | [4] 0 | [5] 0.016 | [6] -0.117 | [7] 0.006 | [8] 0.003 | vemurafenib -0.001 | [9] -0.003 | barasertib 0.019 | [10] 0.008 | volasertib -0.02 | [11] 0.01 | [12] 0.005 | [13] -0.042 | saracatinib 0.024 | sotrastaurin 0.005
